PubChem BioAssay AID1259281 | Sanger Institute | 2017

- Purpose: 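Identify essential genes and drug-enhancing knock-downs among kinases and common colorectal mutated genes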 (primary screen)
- System: human COLO678 colorectal cancer cell line
- Reagent: siRNA pool against human genes
- Conditions: anchor drugs at fixed doses: BYL719 1 µM, cetuximab 5 µg/ml or trametinib 10 nM; DMSO vehicle for the siRNA-alone arm
- Read-out: 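Surviving cells scaled to non-targeting siRNA control as replicate means; robust z-score for knock-down alone; synergy scores weigh knock-down with drug against the predicted combined effect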
- Reading the numbers: robust z-score, siRNA alone: higher = more viable cells; strongly negative means essential; viability, siRNA alone: higher = more surviving cells; synergy score with BYL719 and synergy score with trametinib and synergy score with cetuximab: higher = stronger synergistic killing with drug
- Rule for the call: 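Essential (knock-down alone) when the siRNA-alone robust z-score is below -3; otherwise no change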
- Calls: active = essential (knock-down alone); inactive = no change
In all, the deposit lists 794 reagents; shown is a random part of them. 22 of them (2.8%) count as active. 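Calls rest on knock-down alone only; drug synergy scores play no part in them.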 Viability is capped at 1. Reagent sequences are not shown. Not stated in the record: the amount of reagent, the time to read-out.

target,"robust z-score, siRNA alone","viability, siRNA alone (fraction of control)",synergy score with BYL719,synergy score with trametinib,synergy score with cetuximab,Outcome
CDK11B (cyclin dependent kinase 11B),0.473,1,-0.0179,-0.0545,0.0197,inactive
ACSL6 (acyl-CoA synthetase long chain family member 6),-1.81,0.928,-0.158,-0.0978,-0.0822,inactive
IGF1R (insulin like growth factor 1 receptor),-1.88,0.925,-0.13,0.0309,-0.0134,inactive
"CKMT1B (creatine kinase, mitochondrial 1B)",0.473,1,-0.0751,-0.105,-0.0257,inactive
MPP2 (MAGUK p55 scaffold protein 2),0.473,1,-0.0318,0.0411,0.0866,inactive
TBX3 (T-box transcription factor 3),0.473,1,-0.0828,0.03,-0.0544,inactive
ATRX (ATRX chromatin remodeler),0.473,1,-0.0919,-0.0506,-0.0245,inactive
DGUOK (deoxyguanosine kinase),-0.714,0.962,0.0938,-0.0574,0.112,inactive
MYLK2 (myosin light chain kinase 2),0.473,1,0.103,0.086,0.018,inactive
CAMK2G (calcium/calmodulin dependent protein kinase II gamma),0.473,1,0.0294,0.00295,0.0402,inactive
IGF2R (insulin like growth factor 2 receptor),0.473,1,-0.00807,-0.0527,-0.0137,inactive
WNK4 (WNK lysine deficient protein kinase 4),0.473,1,-0.0919,0.0603,-0.0311,inactive
RPS6KB1 (ribosomal protein S6 kinase B1),0.473,1,0.0594,-0.0265,0.0056,inactive
PDGFRB (platelet derived growth factor receptor beta),-0.958,0.955,0.164,0.078,0.0122,inactive
NME1 (NME/NM23 nucleoside diphosphate kinase 1),0.473,1,-0.0632,-0.0127,-0.0681,inactive
PRKCH (protein kinase C eta),0.224,0.992,0.115,0.0659,0.0456,inactive
ERBB3 (erb-b2 receptor tyrosine kinase 3),-1.22,0.946,0.0155,-0.0419,-0.0232,inactive
TRIO (trio Rho guanine nucleotide exchange factor),0.336,0.996,0.0202,0.0287,0.0418,inactive
STK39 (serine/threonine kinase 39),0.473,1,0.124,0.0706,0.0696,inactive
GNE,0.473,1,-0.0168,0.043,-0.0268,inactive
ADCK5 (aarF domain containing kinase 5),0.473,1,0.0636,0.013,0.0615,inactive
CSF1R (colony stimulating factor 1 receptor),-2.3,0.912,0.0223,-0.0157,0.0284,inactive
MAPKAPK3 (MAPK activated protein kinase 3),0.473,1,-0.0919,0.0383,0.0571,inactive
EIF2AK3 (eukaryotic translation initiation factor 2 alpha kinase 3),0.473,1,0.0696,0.0879,-0.0681,inactive
RUNX1 (RUNX family transcription factor 1),0.473,1,0.0328,0.124,0.0266,inactive
"SRC (SRC proto-oncogene, non-receptor tyrosine kinase)",-0.152,0.98,-0.11,-0.00961,0.0189,inactive
IP6K3 (inositol hexakisphosphate kinase 3),0.473,1,0.112,-0.00605,-0.0165,inactive

Part of the list above, showing only “synergy score with cetuximab”:
RPS6KB1 (ribosomal protein S6 kinase B1): 0.0056
PDGFRB (platelet derived growth factor receptor beta): 0.0122
NME1 (NME/NM23 nucleoside diphosphate kinase 1): -0.0681
PRKCH (protein kinase C eta): 0.0456

The listing continues:
target,"robust z-score, siRNA alone","viability, siRNA alone (fraction of control)",synergy score with BYL719,synergy score with trametinib,synergy score with cetuximab,Outcome
CDC42BPB (CDC42 binding protein kinase beta),0.473,1,-0.0792,0.0422,0.0157,inactive
MAP3K10 (mitogen-activated protein kinase kinase kinase 10),0.473,1,-0.0288,0.026,0.0324,inactive
PRKCD (protein kinase C delta),0.151,0.99,0.0676,0.0543,-0.0254,inactive
CAMKK1 (calcium/calmodulin dependent protein kinase kinase 1),0.473,1,0.0136,-0.000966,0.000846,inactive
TAF1 (TATA-box binding protein associated factor 1),-1.6,0.934,-0.116,-0.0197,-0.0177,inactive
NEK4 (NIMA related kinase 4),0.473,1,0.137,0.125,0.00165,inactive
TSKS (testis specific serine kinase substrate),0.473,1,-0.0919,-0.0367,-0.0681,inactive
IKBKB (inhibitor of nuclear factor kappa B kinase subunit beta),0.285,0.994,-0.0973,0.0815,0.0718,inactive
WIPF1 (WAS/WASL interacting protein family member 1),0.473,1,0.097,0.0362,0.012,inactive
MARK2 (microtubule affinity regulating kinase 2),0.473,1,-0.061,0.0274,-0.0681,inactive
RSKR (ribosomal protein S6 kinase related),0.473,1,-0.0178,-0.0251,0.0916,inactive
RFK (riboflavin kinase),-1.5,0.937,-0.149,0.0795,-0.0834,inactive
EPHA5 (EPH receptor A5),-1.22,0.946,-0.0514,0.0544,-0.0641,inactive
PRKACB (protein kinase cAMP-activated catalytic subunit beta),0.473,1,0.0989,-0.0405,0.144,inactive
MAPK3 (mitogen-activated protein kinase 3),-0.206,0.978,-0.0711,0.0509,0.00423,inactive
AURKA (aurora kinase A),-0.867,0.957,0.0671,0.0018,0.0733,inactive
NUP107 (nucleoporin 107),-1.34,0.942,-0.111,-0.0178,0.124,inactive
STK40 (serine/threonine kinase 40),-0.861,0.958,-0.0839,-0.00203,-0.029,inactive
"BLK (BLK proto-oncogene, Src family tyrosine kinase)",0.473,1,-0.00888,0.0212,0.0205,inactive
MAP2K4 (mitogen-activated protein kinase kinase 4),0.473,1,-0.0674,-0.0143,-0.00268,inactive
ARID1A (AT-rich interaction domain 1A),0.473,1,-0.0919,0.054,0.0545,inactive
CUL1 (cullin 1),0.473,1,-0.0919,0.0542,-0.00853,inactive
SYK (spleen associated tyrosine kinase),-0.285,0.976,0.0388,0.0973,0.134,inactive
